Most values lie at the floor of the assay. Slopes are relative: functional sequences can read slightly below zero.
The substances below were run on Saccharomyces cerevisiae PS128 hsf1 delta, HSF1(1-493) fusion (assay: growth estimate (transactivation domain function in HSF1 fusion, heat-shock survival) (a.u. (slope of normalised read count over time)); higher = stronger growth at 37°C, i.e. more transactivation activity). Conditions: library: random library.

Substance	growth estimate
TWLSMSQPTVARIIWKDAMS	< -0.25
ATITRRVRQFIYENECGPLQ	< -0.25
VPSFLFLQRLRF	< -0.25
VCHEA	< -0.25
ISLGTRNV	< -0.25
GCDGKLTWNRAQLFSRTNRS	< -0.25
GSCIPASLNVVPRRGLALIS	< -0.25
LQI	< -0.25
YKRRISNRTERPVGESFVGL	< -0.25
RLTG	< -0.25
LVGMREPVGVCSVEWQRKDT	< -0.25
SISWGPKSRSG	< -0.25
VQKVQIVRLSEN	< -0.25
RSLTTTWYVLG	< -0.25
QDRGRSARS	< -0.25
RVPQFRQLSIWNKKLLWVRH	< -0.25
VISPEE	< -0.25
AGGLILQAWRAFGITMGCCS	< -0.25
FSRYGRKLGVLVLSKNTWVA	< -0.25
FCGRPRSVRLPGDGFEEGGC	< -0.25
SALLCVSDRRLSVSWGFHRC	< -0.25
KLRRCGDSRWRRRLPLTRAL	< -0.25
LCSLVRVCSRY	< -0.25
SEAK	< -0.25

Substance	growth estimate
RTRLQGSVGIRLAGSLSGLA	< -0.25
LCCERLQGA	< -0.25
CRPSLARIKFAERARK	< -0.25
YREC	< -0.25
TEMVGTMRELNQALRVEPFT	< -0.25
GPVSRG	< -0.25
VRGD	< -0.25
GTLGPTPV	< -0.25
LVLRSFLVFNSQIPAIV	< -0.25
FVRGCKENDRPGVTYITKHG	< -0.25
YRLDSYPCWLELCSQRLSST	< -0.25
TRKRTATSMDVSAAGGRASG	< -0.25
MDEARKDASFMEADSVGQLY	< -0.25
TGDRVVLTVLNKILEGN	< -0.25
IAAYLAPACGKSAIPVAMVG	< -0.25
YQNVREDPMVHVVVGTVWTI	< -0.25
AGRNNRGDRIRNRLPSDYSR	< -0.25
IRPMSLNLQSSRRRTSQLGN	< -0.25
APGLHLQDVVT	< -0.25
KSRLCWKSALGVRIDKVS	< -0.25
CGSSNVHLIGSGDCTICGNC	< -0.25
PAQSYHLRYAPEKSELFAGP	< -0.25
LWRVNYVLGRRLLKRLAVLR	-0.231
NAAWRPGKHDGILSGPVRPL	< -0.25

Substance	growth estimate
HGHSSDIKSFGPLHMSHCHG	< -0.25
ADEVGHYL	< -0.25
WEVVDLQAISSWLMVFSTYV	< -0.25
QDLKGKAGRNVWLSGIPARE	< -0.25
GCKDL	< -0.25
SEAAVVKWGRVTVNAYPNCK	< -0.25
TLIWPRKFGFLLFCVFGIWC	< -0.25
HEHPRAGNVYSVSVDAGSAC	< -0.25
GDPLAIVVLWIY	< -0.25
GITWAGISRHTFRGS	-0.238
ADVLRYSYGDEHARPNDNGL	< -0.25
PEIDMVGTHLQLETLWSTAT	0.0225
GPHILLYVVNNG	< -0.25
RSRRNRIRVHTQNTFPLT	< -0.25
LSSMG	< -0.25
LHLLSESGVAGGSDQ	< -0.25
RMKSDPGELAIGSEPTFEID	< -0.25
LSMVIKLQGV	< -0.25
IIGGLAARDTCPRV	< -0.25
RPMTGKPTSPRSVIEVTGLF	-0.246
SSCRIKQDLPWSLAAIPRGC	< -0.25
RDKNFSSAVHEGVRLAFVQS	< -0.25
GSQAVTRGLWKEI	< -0.25
VLCMTLHFFGDYALGEYPPP	< -0.25

Substance	growth estimate
TWRLLNKV	< -0.25
TAYDARFGWSFLAIQGTTAF	< -0.25
TTCIDR	< -0.25
RPYQLQICGDDYGQLIMR	< -0.25
DRISSLPYYVKLFVSHQAAG	< -0.25
ILKKGYPSCTYARLAM	< -0.25
RTTTGPETRKRA	< -0.25
FTTAFCA	< -0.25
AQSTVA	0.0823
CGTEAEFVAYVNVRWGRWQS	< -0.25
SGAHHITVCSSLIVVILFSR	< -0.25
KGTTYIRRIE	< -0.25
CEVVYSVTGRLFLALH	< -0.25
LEEHGTLSDYVE	< -0.25
GGMFNIYPFRA	< -0.25
SLGKEVPPMIERDVRFVGNS	< -0.25
FGA	< -0.25
VVPACGTSEASKVICGVGGL	< -0.25
FILMLRGW	< -0.25
LSLARSQ	< -0.25
DSVQTICVVDVGSVS	< -0.25
KLDCSKLVLR	< -0.25
IRGVLSFKSGLWCKRKQFSA	< -0.25
RIHIVEA	< -0.25

Substance	growth estimate
FLEFFSLYVGNEIR	< -0.25
GKKEFEA	< -0.25
GPSRGGCREPSRRGTACYAR	< -0.25
LVASST	< -0.25
SDKCIIPTLPYGL	< -0.25
QRCSNARSPSRRP	< -0.25
VSDARRRD	< -0.25
GMEHGSLRRFLRLRRISCDV	< -0.25
LKLEANGVLSSIIIAPDRPN	-0.248
VLGYRYTSAPIGILIMIDTI	< -0.25
MSSHNTCPIGVYGSLLLLVT	< -0.25
RHYIDTSLGRSKGGGFGKPY	< -0.25
KLLHDMSRVGP	< -0.25
RHPSIGTAMRRMAANSPSGP	< -0.25
RRYLLRYIGTANGRGIVATC	< -0.25
YYGIIARSVTPVNQNAHTGQ	< -0.25
GGRSNAHRGPILMH	< -0.25
IVRNSRGSIVGFAVGRLWGA	< -0.25
NIESFCPTGTKLR	< -0.25
SVA	< -0.25
IFRMRRYISNLLASVRVSQF	< -0.25
ELQCTSRYYFDCTRGKERAV	< -0.25
RNLFR	< -0.25
LHSQSNTIFREIGSLSH	< -0.25

Substance	growth estimate
GFGNGTEREVTLPDPAFRVC	< -0.25
HSAR	< -0.25
GRTSIGQCCLHALQPRTMQS	< -0.25
MSFTVYW	< -0.25
VWRSANRNPAEARRQWSVVD	-0.246
RFKPQTGGDGRGDARGAIGI	< -0.25
PSAFKDSWELCVRVAVALSV	< -0.25
RVVQMQHRRALYARETGRIR	< -0.25
KGINDLAQRGIL	< -0.25
HTLGTTANWSNALFVAQ	< -0.25
LNAGPARPYAYLT	< -0.25
WPYGDNTLIARQLWGSPIDF	< -0.25
GDLSSVVHSCKWGLALTTSK	< -0.25
TLDAQERRPE	-0.221
SIKSLVGGIFGRVARIDDRS	< -0.25
CARLSRLTHTTSWWSCRGNQ	< -0.25
YVWLTRPIA	< -0.25
SRAMISQRSTDRLLIS	< -0.25
QAEQPRAKLVANRA	< -0.25
RSSSKTGRDYKLYSHARKSK	< -0.25
IRFHAPSGRAVHSELHCNPS	< -0.25
GPMGHE	< -0.25
PPGLYEFFVPAGTKRATIAQ	< -0.25

A different layout for some results above:
Substance | growth estimate
GGRSNAHRGPILMH | < -0.25
IVRNSRGSIVGFAVGRLWGA | < -0.25
NIESFCPTGTKLR | < -0.25
SVA | < -0.25
RNLFR | < -0.25
LHSQSNTIFREIGSLSH | < -0.25
GFGNGTEREVTLPDPAFRVC | < -0.25
HSAR | < -0.25
GRTSIGQCCLHALQPRTMQS | < -0.25
MSFTVYW | < -0.25
VWRSANRNPAEARRQWSVVD | -0.246
RFKPQTGGDGRGDARGAIGI | < -0.25
PSAFKDSWELCVRVAVALSV | < -0.25
RVVQMQHRRALYARETGRIR | < -0.25
HTLGTTANWSNALFVAQ | < -0.25
LNAGPARPYAYLT | < -0.25
WPYGDNTLIARQLWGSPIDF | < -0.25
GDLSSVVHSCKWGLALTTSK | < -0.25
TLDAQERRPE | -0.221
SIKSLVGGIFGRVARIDDRS | < -0.25
CARLSRLTHTTSWWSCRGNQ | < -0.25
YVWLTRPIA | < -0.25
SRAMISQRSTDRLLIS | < -0.25
QAEQPRAKLVANRA | < -0.25
RSSSKTGRDYKLYSHARKSK | < -0.25
IRFHAPSGRAVHSELHCNPS | < -0.25
GPMGHE | < -0.25
PPGLYEFFVPAGTKRATIAQ | < -0.25

From the supplement of paper PMC5949888
